This is one part of the list.
Legend:
Assay in all cases: log2 fold change, soluble protein after heating vs DMSO (PISA); higher = thermal stabilisation; K562 lysate, 10 uM; active = over 0.2 and 3.5 SD of the protein, either way, in both replicates (recomputed)
[1] = compound: C1=CC=C(C=C1)[C@H](COC2=CC3=C(C=C2)NC(=O)N3)NC(=O)C4=CC=CN(C4=O)CC5=CC(=C(C=C5)F)F
Summary of the method: (§1)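 Following dounce homogenisation of K562 pellets in PBS pH 7.4 with 1 mM MgCl2, crude extract at 1 mg/mL protein was incubated for 30 min with 10 μM compound. Aliquots were then heated for 3 min over 48°C-58°C and pooled, NP-40 was added to 0.5% at 4°C, and soluble protein was recovered as the supernatant at 21,000xg for 90 min. Channel-sum-equalised TMTpro 16plex LC-MS/MS quantified this protein. Each value, from duplicates, is a log-two fold change in thermal stability relative to solvent controls.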

Protein sequences, listed by entry. Tags and fused reporters are not part of them. Lines headed by an entry give the natural chain unless they say otherwise; changes in a name come on top.
UniProt Q5VW38: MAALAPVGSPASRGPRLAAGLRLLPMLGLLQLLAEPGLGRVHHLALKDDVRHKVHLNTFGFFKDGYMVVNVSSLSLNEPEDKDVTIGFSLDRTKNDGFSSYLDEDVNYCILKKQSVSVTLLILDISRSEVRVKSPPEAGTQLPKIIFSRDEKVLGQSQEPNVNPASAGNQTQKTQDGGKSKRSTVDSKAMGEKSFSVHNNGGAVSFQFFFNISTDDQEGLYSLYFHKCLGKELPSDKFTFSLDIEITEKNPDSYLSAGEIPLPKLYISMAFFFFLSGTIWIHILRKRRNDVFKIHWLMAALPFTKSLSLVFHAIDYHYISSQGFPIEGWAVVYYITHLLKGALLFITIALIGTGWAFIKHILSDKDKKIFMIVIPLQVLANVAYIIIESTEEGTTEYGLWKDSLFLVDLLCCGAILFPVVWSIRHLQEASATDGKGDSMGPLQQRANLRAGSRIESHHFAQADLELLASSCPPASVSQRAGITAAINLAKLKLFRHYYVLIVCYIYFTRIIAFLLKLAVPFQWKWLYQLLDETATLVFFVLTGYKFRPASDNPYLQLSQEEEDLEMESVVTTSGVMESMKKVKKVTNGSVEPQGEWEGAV
UniProt Q9UKD1: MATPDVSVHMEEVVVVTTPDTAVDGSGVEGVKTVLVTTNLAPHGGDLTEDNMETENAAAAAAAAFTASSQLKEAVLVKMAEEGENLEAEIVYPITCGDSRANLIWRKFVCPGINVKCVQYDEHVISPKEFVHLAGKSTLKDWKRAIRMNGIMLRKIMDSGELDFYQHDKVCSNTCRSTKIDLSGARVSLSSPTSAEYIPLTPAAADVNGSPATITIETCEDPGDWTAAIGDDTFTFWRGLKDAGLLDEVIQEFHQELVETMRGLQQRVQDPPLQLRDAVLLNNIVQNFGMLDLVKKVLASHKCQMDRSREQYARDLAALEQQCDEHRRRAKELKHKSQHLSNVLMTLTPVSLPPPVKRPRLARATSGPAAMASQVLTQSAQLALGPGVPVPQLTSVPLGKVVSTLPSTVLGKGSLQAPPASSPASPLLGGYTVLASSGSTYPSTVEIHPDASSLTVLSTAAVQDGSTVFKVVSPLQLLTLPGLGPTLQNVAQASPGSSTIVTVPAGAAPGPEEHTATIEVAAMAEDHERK
UniProt Q92990: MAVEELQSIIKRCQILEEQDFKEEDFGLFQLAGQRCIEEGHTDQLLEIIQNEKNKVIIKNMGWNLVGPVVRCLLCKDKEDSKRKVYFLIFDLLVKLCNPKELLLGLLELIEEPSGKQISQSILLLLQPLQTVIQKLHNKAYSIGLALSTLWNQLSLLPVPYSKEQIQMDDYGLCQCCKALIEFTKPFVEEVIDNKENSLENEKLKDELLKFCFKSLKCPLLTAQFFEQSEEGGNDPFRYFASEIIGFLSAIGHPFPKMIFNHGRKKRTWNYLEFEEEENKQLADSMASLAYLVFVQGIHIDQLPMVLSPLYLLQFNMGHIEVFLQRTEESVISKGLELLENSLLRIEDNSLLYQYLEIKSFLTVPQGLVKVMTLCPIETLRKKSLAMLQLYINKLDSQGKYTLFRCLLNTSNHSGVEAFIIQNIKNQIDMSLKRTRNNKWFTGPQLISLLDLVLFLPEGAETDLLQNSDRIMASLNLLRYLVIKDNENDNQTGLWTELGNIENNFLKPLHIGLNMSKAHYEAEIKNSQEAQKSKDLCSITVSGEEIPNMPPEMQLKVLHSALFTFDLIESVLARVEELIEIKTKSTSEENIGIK
UniProt O60234, whole entry, looked up: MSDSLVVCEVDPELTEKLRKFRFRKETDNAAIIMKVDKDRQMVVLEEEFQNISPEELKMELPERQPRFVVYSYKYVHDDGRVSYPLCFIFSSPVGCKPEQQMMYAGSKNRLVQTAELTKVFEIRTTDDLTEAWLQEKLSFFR
UniProt P29992, whole entry, looked up: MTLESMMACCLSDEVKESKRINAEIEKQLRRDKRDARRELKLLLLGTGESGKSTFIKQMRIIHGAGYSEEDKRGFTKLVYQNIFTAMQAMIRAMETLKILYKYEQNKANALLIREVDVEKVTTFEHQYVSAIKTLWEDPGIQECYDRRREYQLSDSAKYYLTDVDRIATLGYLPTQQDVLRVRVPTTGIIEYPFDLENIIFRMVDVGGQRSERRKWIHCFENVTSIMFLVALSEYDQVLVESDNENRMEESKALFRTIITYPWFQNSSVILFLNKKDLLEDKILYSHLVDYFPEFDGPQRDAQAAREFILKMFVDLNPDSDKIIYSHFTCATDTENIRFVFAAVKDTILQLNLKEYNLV
UniProt Q86SX6: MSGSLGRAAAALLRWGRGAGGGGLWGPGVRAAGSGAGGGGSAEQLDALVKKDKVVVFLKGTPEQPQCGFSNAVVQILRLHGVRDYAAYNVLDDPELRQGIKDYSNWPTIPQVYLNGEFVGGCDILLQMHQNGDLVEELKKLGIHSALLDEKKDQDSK
UniProt Q5T7V8: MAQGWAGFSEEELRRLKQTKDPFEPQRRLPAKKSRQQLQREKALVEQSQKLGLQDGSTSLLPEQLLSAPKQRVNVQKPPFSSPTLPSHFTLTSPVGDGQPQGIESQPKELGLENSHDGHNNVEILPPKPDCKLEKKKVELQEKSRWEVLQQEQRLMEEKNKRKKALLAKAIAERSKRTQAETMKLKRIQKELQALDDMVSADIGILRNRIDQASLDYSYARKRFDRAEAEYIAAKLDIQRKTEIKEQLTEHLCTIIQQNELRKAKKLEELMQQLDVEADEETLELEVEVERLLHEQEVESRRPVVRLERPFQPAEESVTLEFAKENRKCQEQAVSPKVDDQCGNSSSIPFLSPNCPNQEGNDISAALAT
UniProt Q9H4G4: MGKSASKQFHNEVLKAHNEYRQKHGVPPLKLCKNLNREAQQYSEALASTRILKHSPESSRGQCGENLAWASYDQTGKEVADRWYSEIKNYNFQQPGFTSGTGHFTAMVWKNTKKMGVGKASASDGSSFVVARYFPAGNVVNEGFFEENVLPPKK
UniProt Q7Z5G4, whole entry, looked up: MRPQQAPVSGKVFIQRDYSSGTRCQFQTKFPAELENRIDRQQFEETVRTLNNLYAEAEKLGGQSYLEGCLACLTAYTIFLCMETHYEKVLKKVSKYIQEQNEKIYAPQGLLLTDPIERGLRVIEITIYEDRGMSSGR
UniProt Q9HCN4, whole entry, looked up: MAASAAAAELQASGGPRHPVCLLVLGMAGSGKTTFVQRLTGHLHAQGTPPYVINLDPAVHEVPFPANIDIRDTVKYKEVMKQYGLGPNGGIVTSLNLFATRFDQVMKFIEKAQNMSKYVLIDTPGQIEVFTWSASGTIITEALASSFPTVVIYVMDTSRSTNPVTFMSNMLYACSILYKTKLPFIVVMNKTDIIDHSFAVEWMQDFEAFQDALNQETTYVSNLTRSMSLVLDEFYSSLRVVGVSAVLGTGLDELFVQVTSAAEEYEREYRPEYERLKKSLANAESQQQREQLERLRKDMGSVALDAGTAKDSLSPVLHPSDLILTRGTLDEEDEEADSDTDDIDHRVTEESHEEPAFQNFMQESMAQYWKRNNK
UniProt O14653: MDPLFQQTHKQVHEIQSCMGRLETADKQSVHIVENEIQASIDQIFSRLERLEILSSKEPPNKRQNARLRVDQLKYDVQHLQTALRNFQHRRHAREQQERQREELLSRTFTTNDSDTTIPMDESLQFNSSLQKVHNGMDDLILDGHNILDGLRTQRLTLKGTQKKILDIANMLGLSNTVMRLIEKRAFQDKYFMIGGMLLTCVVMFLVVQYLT
UniProt Q9BVM4: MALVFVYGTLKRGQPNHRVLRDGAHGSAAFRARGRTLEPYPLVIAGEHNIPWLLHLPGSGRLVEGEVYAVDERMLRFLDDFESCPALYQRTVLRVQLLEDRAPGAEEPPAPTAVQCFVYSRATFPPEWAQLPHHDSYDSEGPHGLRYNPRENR
UniProt P50148, whole entry, looked up: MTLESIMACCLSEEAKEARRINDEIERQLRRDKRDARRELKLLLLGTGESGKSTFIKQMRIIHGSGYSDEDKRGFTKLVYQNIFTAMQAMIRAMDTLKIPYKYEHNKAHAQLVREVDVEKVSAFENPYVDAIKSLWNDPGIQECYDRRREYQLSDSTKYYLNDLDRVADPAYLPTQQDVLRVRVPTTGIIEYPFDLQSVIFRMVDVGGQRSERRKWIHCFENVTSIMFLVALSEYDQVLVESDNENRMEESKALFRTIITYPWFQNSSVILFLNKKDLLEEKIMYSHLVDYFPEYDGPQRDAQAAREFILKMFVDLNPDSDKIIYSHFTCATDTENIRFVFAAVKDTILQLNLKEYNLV
UniProt Q9UKJ3: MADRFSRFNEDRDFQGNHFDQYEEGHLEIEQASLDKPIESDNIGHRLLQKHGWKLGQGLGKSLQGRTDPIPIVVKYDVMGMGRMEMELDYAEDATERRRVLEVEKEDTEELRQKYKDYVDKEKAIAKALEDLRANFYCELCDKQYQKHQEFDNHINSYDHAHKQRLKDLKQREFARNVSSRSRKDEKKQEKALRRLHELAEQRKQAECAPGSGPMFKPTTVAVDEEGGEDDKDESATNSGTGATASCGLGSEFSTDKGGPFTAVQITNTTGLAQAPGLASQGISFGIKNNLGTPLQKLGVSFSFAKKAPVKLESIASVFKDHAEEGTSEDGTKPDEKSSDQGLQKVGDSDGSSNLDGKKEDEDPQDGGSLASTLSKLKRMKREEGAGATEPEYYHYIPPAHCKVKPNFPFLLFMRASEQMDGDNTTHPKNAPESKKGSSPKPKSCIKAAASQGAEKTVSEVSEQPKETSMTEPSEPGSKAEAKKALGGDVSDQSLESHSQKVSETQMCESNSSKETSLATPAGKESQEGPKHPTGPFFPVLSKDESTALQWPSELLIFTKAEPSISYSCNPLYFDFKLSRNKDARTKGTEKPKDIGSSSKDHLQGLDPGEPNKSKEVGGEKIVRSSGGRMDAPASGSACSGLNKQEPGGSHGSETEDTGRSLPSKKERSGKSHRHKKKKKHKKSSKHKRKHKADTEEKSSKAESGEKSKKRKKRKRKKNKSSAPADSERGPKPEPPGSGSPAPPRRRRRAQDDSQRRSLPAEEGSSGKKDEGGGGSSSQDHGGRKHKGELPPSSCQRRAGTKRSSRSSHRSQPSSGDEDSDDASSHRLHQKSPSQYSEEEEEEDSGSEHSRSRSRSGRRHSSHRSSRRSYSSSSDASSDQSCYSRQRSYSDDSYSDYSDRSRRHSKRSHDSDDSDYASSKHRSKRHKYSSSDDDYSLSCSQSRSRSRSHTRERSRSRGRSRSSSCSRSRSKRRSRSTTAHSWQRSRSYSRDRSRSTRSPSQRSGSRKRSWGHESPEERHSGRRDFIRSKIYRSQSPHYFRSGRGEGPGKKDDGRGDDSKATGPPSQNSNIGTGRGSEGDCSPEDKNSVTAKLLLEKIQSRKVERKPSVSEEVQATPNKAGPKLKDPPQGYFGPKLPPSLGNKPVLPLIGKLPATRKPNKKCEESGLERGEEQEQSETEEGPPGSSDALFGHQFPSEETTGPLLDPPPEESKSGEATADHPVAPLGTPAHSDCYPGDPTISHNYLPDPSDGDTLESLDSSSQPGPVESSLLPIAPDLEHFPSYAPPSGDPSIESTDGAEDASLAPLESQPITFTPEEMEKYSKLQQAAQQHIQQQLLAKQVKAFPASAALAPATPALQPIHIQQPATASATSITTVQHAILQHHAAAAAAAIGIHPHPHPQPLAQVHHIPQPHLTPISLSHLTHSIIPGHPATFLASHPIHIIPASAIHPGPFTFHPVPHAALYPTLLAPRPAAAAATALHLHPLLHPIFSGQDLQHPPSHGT
UniProt P15586: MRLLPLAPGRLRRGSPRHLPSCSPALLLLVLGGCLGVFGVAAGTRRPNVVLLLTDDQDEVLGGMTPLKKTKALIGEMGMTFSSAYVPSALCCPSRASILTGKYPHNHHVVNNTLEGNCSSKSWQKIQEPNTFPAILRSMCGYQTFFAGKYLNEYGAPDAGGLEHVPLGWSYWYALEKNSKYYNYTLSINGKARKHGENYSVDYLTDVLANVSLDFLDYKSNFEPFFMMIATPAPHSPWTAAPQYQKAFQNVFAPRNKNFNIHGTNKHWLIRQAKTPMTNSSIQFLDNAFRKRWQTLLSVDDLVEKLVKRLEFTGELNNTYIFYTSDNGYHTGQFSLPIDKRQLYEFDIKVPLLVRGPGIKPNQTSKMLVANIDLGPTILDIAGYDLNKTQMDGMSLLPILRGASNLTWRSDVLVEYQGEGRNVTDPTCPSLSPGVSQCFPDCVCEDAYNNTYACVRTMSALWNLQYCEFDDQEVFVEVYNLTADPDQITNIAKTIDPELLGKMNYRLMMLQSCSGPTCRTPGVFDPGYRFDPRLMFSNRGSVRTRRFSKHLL
UniProt O95749: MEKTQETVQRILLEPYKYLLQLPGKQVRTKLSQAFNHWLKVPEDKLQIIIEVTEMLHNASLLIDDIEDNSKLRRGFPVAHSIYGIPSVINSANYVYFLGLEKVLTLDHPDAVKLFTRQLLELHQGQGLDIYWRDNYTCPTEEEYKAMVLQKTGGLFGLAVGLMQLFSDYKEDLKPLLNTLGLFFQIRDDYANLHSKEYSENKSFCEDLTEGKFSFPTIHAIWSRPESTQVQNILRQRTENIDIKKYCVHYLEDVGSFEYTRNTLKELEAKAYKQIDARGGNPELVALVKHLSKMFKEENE

[2] = compound: CC1=C(SC2=C1C(=N[C@H](C3=NN=C(N32)C)CC(=O)N)C4=CC=C(C=C4)Cl)C
Summary of the method: as §1

[3] = compound: CC1=C2C(=CC=C1)N=C(N(C2=O)C3=CC=CC=C3C)CN4C=NC5=C(N=CN=C54)N
Summary of the method: as §1

[4] = compound: Cc1sc2c(c1C)C(c1ccc(Cl)cc1)=N[C@@H](CC(=O)OC(C)(C)C)c1nnc(C)n1-2
Summary of the method: as §1

[5] = compound: c1ccc([C@@H]2C[C@H]2NC2CCNCC2)cc1
Summary of the method: as §1

Measured: log2 fold change

GLRX3 (UniProt O76003)
inactive: [1] 0.007 | [2] 0.022 | [3] -0.016 | [4] 0 | [5] 0.001

GPR107 isoform 2 (UniProt Q5VW38)
inactive: [1] -0.001 | [2] 0.001 | [3] -0.026 | [4] -0.057 | [5] -0.058

GMEB2 (UniProt Q9UKD1)
inactive: [1] 0.011 | [2] 0.019 | [3] -0.092 | [4] -0.045 | [5] -0.023

GPRIN1 (UniProt Q7Z2K8)
inactive: [1] 0.015 | [2] 0.011 | [3] 0.039 | [4] -0.057 | [5] -0.021

GLMN (UniProt Q92990)
inactive: [1] -0.009 | [2] 0 | [3] 0.004 | [4] -0.044 | [5] 0.009

GMFG (UniProt O60234)
inactive: [1] 0.025 | [2] 0 | [3] 0.001 | [4] 0.01 | [5] 0.067

2 consecutive entries from above, quoted:
GPR107 isoform 2 (UniProt Q5VW38)
inactive: [1] -0.001 | [2] 0.001 | [3] -0.026 | [4] -0.057 | [5] -0.058

GMEB2 (UniProt Q9UKD1)
inactive: [1] 0.011 | [2] 0.019 | [3] -0.092 | [4] -0.045 | [5] -0.023

(continued)

GNA11 (UniProt P29992)
inactive: [1] 0.02 | [2] -0.011 | [3] -0.001 | [4] 0.013 | [5] 0.004

GNPDA1 (UniProt P46926)
inactive: [1] 0.029 | [2] -0.006 | [3] -0.02 | [4] 0.006 | [5] -0.026

GLRX5 (UniProt Q86SX6)
inactive: [1] -0.029 | [2] -0.043 | [3] -0.028 | [4] -0.203 | [5] -0.029

GOLIM4 (UniProt O00461)
inactive: [1] 0.025 | [2] 0.038 | [3] 0.035 | [4] -0.054 | [5] 0.09

GLB1 (UniProt P16278)
inactive: [1] 0.02 | [2] 0.033 | [3] 0.046 | [4] 0.016 | [5] -0.019

GORAB (UniProt Q5T7V8)
inactive: [1] 0.131 | [2] -0.002 | [3] -0.02 | [4] -0.034 | [5] 0.06

GMEB1 (UniProt Q9Y692)
inactive: [1] -0.016 | [2] -0.007 | [3] -0.043 | [4] 0.001 | [5] -0.049

GLIPR2 (UniProt Q9H4G4)
inactive: [1] 0.028 | [2] 0.005 | [3] 0.014 | [4] 0.059 | [5] 0.045

GOLGA7 (UniProt Q7Z5G4)
inactive: [1] 0.003 | [2] -0.098 | [3] 0.019 | [4] -0.069 | [5] 0.01

GPN1 isoform 5 (UniProt Q9HCN4)
inactive: [1] 0 | [2] 0.027 | [3] 0.007 | [4] 0.03 | [5] 0.032

GOSR2 isoform 2 (UniProt O14653)
inactive: [1] -0.002 | [2] 0.034 | [3] 0.013 | [4] -0.002 | [5] 0.03

GGACT (UniProt Q9BVM4)
inactive: [1] 0.026 | [2] 0.078 | [3] 0.066 | [4] 0.113 | [5] -0.045

GNAQ (UniProt P50148)
inactive: [1] -0.033 | [2] 0.042 | [3] 0.023 | [4] 0.021 | [5] 0.006

GPBP1L1 (UniProt Q9HC44)
inactive: [1] 0.094 | [2] -0.025 | [3] 0.017 | [4] 0.002 | [5] -0.036

GPS1 isoform 6 (UniProt Q13098)
inactive: [1] 0.022 | [2] -0.009 | [3] -0.005 | [4] 0.018 | [5] -0.1

GPATCH8 (UniProt Q9UKJ3)
inactive: [1] -0.016 | [2] 0.001 | [3] 0.078 | [4] 0.077 | [5] -0.019

GNS (UniProt P15586)
inactive: [1] -0.01 | [2] 0.023 | [3] -0.012 | [4] 0.001 | [5] -0.054

GGPS1 (UniProt O95749)
inactive: [1] 0.031 | [2] 0.025 | [3] 0.006 | [4] 0.023 | [5] 0.004
